Measured data: PubChem BioAssay AID504804 (Drosophila RNAi Screening Center, 2011)
The deposit covers about 19,000 reagents; this is a random part of those with a known target gene and a result. Over the whole deposit, 47 (0.25%) are marked active. 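Signals are raw, not normalised; exact z-scores behind calls not deposited; actives needed confirmation, so some wells reaching 2 SD are inactive.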 Names joined by + are all predicted targets of the reagent. No sequences are given here.

Purpose: 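Knock-downs shielding fly cells from apoptosis caused by DNA damage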 (primary screen)
Cell system: Drosophila Kc cells
Knock-down reagent: long dsRNA against Drosophila genes, 0.5 µg dsRNA per well
Time to read-out: 96 h (48 h knock-down, then 48 h drug)
Challenge: doxorubicin 5 µg/ml for 48 h, added 48 h after dsRNA
Measured: 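Luminescent ATP counts per replicate, not normalised, reflecting viable cells after 48 h dsRNA knock-down followed by 48 h of 5 µg/ml doxorubicin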
Reading the numbers: raw ATP luminescence: higher = more viable cells, protection from doxorubicin
Call rule: 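z-score of 2 or more over plate mean in both duplicates, retained only when retests and separate dsRNAs confirm the protection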

Gene | DRSC id | SD above plate mean | raw ATP luminescence, replicate 1 | raw ATP luminescence, replicate 2 | Call
Sugb | DRSC10815 | – | 35133 | 46777 | inactive
pxb | DRSC13110 | – | 1.75e5 | 2.07e5 | inactive
pxb | DRSC14996 | – | 91450 | 69780 | inactive
pxb | DRSC14997 | – | 81260 | 53980 | inactive
pros | DRSC12856 | – | 2.07e5 | 2.15e5 | inactive
pros | DRSC17032 | – | 44473 | 25597 | inactive
PDCD-5 | DRSC09955 | – | 64123 | 53790 | inactive
CG4497 | DRSC02754 | – | 1.16e5 | 75367 | inactive
CG17378 | DRSC02616 | – | 31897 | 38070 | inactive
CG13053 | DRSC09934 | – | 66773 | 62090 | inactive
bowl | DRSC00805 | – | 1.03e5 | 63820 | inactive
dmt | DRSC16932 | – | 54747 | 63907 | inactive
Blos4 | DRSC10151 | – | 79810 | 71833 | inactive
CG34015 | DRSC19140 | – | 1.74e5 | 2.04e5 | inactive
TyrRS-m | DRSC04286 | – | 54180 | 40953 | inactive
GlcAT-I | DRSC17307 | – | 2.05e5 | 2.11e5 | inactive
EMC6 | DRSC14386 | – | 52360 | 56370 | inactive
CG12061 | DRSC20715 | – | 3.26e5 | 2.91e5 | inactive
CG1317 | DRSC08305 | – | 61377 | 64313 | inactive
CG8671 | DRSC03102 | – | 62453 | 55000 | inactive
CG8671 | DRSC03103 | – | 81927 | 60760 | inactive
pinta | DRSC14698 | – | 43403 | 39700 | inactive
Spn27A | DRSC03608 | – | 35767 | 48277 | inactive
CG1504 | DRSC20513 | – | 3.41e5 | 2.94e5 | inactive
CG42505 + CG42504 + CG31358 | DRSC15235 | – | 73860 | 42980 | inactive
CG42505 + CG42504 + CG31358 | DRSC15308 | – | 2.01e5 | 1.55e5 | inactive
CG42505 + CG42504 + CG31358 | DRSC15309 | – | 43513 | 53773 | inactive
Mdr49 | DRSC07466 | – | 55333 | 54287 | inactive
MAPk-Ak2 | DRSC18678 | – | 37680 | 40580 | inactive
CG6688 | DRSC16094 | – | 72630 | 65110 | inactive
CG7564 | DRSC10880 | – | 59493 | 50823 | inactive
AIF | DRSC00696 | – | 87130 | 59227 | inactive
CG10177 | DRSC14201 | – | 67910 | 60990 | inactive
CG42717 | DRSC09411 | – | 76180 | 72337 | inactive
CG43658 | DRSC20111 | – | 2.45e5 | 2.72e5 | inactive
Dronc | DRSC11231 | at least 3 SD above plate mean | 98707 | 1.00e5 | active
Loxl2 | DRSC04469 | – | 71363 | 72923 | inactive
Pcp | DRSC03395 | – | 37160 | 44120 | inactive
Phlpp | DRSC02065 | – | 65747 | 72750 | inactive
Gmppb | DRSC12169 | – | 48617 | 35723 | inactive
CG8745 | DRSC11033 | – | 19977 | 21560 | inactive
CG8745 | DRSC11034 | – | 70293 | 65280 | inactive
l(3)L1231 | DRSC16323 | – | 1.01e5 | 46317 | inactive
Cyp6d4 | DRSC16633 | – | 30803 | 39630 | inactive
CG11085 | DRSC19374 | – | 3.48e5 | 2.93e5 | inactive
CG9302 | DRSC03191 | – | 1.83e5 | 1.79e5 | inactive
CG5849 | DRSC15893 | – | 48880 | 64510 | inactive
CG42709 | DRSC10277 | – | 42233 | 36367 | inactive
loopin-1 | DRSC06888 | – | 49047 | 62690 | inactive
c11.1 | DRSC18749 | – | 3.17e5 | 3.41e5 | inactive
rho-4 | DRSC19762 | – | 4.25e5 | 3.25e5 | inactive
CG11929 | DRSC00339 | – | 22220 | 30863 | inactive
Slob (retired record) | DRSC03436 | – | 1.04e5 | 73573 | inactive
CG31126 | DRSC14623 | – | 60580 | 43100 | inactive
Sou | DRSC04356 | – | 61970 | 63610 | inactive
CG31087 | DRSC14253 | – | 75280 | 61400 | inactive
Porin2 | DRSC02584 | – | 42613 | 63117 | inactive
CG1161 | DRSC12180 | – | 36073 | 38520 | inactive
CG34234 + Dh44-R2 | DRSC07278 | – | 44213 | 41027 | inactive
Cyp312a1 | DRSC11128 | – | 94127 | 76377 | inactive
CAH9 | DRSC15963 | – | 60510 | 51510 | inactive
CG7191 | DRSC03022 | – | 33660 | 35233 | inactive
tos | DRSC03624 | – | 68793 | 62053 | inactive
Cp38 | DRSC18453 | – | 44880 | 36640 | inactive
CG9044 | DRSC03130 | – | 1.12e5 | 79737 | inactive
CG4025 | DRSC18523 | – | 55370 | 59570 | inactive
GLS | DRSC07261 | – | 42257 | 43283 | inactive
CG8237 | DRSC07119 | – | 59850 | 69323 | inactive
Socs44A | DRSC06828 | – | 43333 | 83593 | inactive
Pfdn1 | DRSC02325 | – | 21150 | 26907 | inactive
mRpS23 | DRSC01348 | – | 2.26e5 | 2.34e5 | inactive
CG10307 | DRSC04057 | – | 79990 | 66820 | inactive
CG6937 + btn | DRSC16917 | – | 67080 | 42640 | inactive
futsch | DRSC17688 | – | 2.03e5 | 2.10e5 | inactive
futsch | DRSC17949 | – | 50080 | 50670 | inactive
futsch | DRSC18543 | – | 43830 | 52520 | inactive
Lip1 | DRSC03364 | – | 39107 | 57030 | inactive
flr | DRSC09787 | – | 45693 | 53660 | inactive
CG8252 | DRSC07126 | – | 73593 | 73557 | inactive
dpr12 | DRSC04814 | – | 91137 | 91483 | inactive
dpr12 | DRSC04863 | – | 73130 | 57677 | inactive
dpr12 | DRSC04892 | – | 45493 | 57540 | inactive
MED1 | DRSC11808 | – | 20933 | 20657 | inactive
CG15478 | DRSC18057 | – | 43480 | 75270 | inactive

Taken from above:
Blos4 [DRSC10151], raw ATP luminescence, replicate 2 = 71833
Under “raw ATP luminescence, replicate 1”, bowl [DRSC00805] shows 1.03e5
dpr12 [DRSC04863], Call → inactive
CG17378 [DRSC02616], raw ATP luminescence, replicate 2 → 38070
